The record followed here is publication doi:10.1101/2021.04.13.439661.

Chains of the proteins cited; added tags and fusions are not shown. Residues count along the entry.
UniProt P08603, residues 19-1231: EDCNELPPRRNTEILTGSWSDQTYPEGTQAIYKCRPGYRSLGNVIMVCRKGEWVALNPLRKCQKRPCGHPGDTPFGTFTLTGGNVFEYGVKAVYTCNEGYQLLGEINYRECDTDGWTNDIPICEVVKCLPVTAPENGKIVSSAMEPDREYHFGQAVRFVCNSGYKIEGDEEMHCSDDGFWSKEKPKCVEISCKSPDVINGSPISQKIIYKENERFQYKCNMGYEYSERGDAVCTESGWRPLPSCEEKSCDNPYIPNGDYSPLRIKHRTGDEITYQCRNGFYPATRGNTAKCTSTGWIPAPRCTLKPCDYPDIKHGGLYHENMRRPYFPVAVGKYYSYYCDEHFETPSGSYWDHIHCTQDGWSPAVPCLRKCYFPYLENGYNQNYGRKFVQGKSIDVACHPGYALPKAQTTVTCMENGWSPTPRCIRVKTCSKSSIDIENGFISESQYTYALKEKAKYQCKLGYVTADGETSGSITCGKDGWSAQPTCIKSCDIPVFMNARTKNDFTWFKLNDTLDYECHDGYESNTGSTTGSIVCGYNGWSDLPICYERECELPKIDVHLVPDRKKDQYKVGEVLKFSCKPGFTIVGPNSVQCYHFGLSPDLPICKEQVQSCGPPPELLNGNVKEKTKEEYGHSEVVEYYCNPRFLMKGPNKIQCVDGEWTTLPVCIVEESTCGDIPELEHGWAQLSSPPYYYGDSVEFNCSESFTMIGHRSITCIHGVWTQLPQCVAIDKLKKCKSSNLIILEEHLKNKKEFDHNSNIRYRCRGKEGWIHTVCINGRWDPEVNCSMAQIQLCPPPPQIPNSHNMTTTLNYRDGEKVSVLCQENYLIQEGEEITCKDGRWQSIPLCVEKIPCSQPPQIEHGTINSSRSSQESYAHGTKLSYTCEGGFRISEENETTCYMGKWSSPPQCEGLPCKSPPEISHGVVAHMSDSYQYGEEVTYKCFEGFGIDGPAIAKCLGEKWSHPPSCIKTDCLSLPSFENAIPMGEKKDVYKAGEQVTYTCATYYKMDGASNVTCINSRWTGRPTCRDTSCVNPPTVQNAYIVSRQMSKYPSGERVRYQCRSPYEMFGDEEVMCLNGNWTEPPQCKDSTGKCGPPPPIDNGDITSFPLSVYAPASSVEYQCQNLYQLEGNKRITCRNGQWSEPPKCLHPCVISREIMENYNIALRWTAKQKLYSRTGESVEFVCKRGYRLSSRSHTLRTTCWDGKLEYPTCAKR

Results are given in words; binding and its absence hold for the method and conditions named.

The test concerns the target T1, recombinant B. bacilliformis GroES (B. bacilliformis) (UniProt A1UTX8).
T1 sequence: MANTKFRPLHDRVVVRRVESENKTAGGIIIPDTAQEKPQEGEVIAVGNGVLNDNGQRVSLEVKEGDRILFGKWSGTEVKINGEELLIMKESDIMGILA
As to the kind of experiment: far-Western.

Take “human complement factor H (from UniProt P08603 19-1231)”: the binding entry is “no binding (tested: 5 ng/μl)”.
